These are yes or no findings as the source states them, for the method shown. Some results given as binding are weak or reduced against the parent protein; the word gives no strength.

For the experiment, the target named is T1, Human IL-33 (REGN3931) (human) (UniProt O95760).
T1 sequence: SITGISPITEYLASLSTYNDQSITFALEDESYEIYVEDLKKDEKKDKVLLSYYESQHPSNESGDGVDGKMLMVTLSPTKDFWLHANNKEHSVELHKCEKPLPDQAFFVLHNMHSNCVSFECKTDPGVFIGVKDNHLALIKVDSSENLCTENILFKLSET
Briefly: antigen-coated sandwich ELISA, detection with anti-human IgG4.

B1: H4H9675P (antibody, human IgG4, V domains shown)
VH: EVQLVESGGNLEQPGGSLRLSCTASGFTFSRSAMNWVRRAPGKGLEWVSGISGSGGRTYYADSVKGRFTISRDNSKNTLYLQMNSLSAEDTAAYYCAKDSYTTSWYGGMDVWGHGTTVTVSS
VL: DIQMTQSPSSVSASVGDRVTITCRASQGIFSWLAWYQQKPGKAPKLLIYAASSLQSGVPSRFSGSGSGTDFTLTISSLQPEDFAIYYCQQANSVPITFGQGTRLEIK
Regarding B1, the binding result is on record as “binds”.

The values above are taken from patent US20260193369A1.
